Measured values taken from patent US8394856B2, “(-)-Hydroxycitric acid for controlling inflammation” (Glykon Technologies Group, LLC, priority 2002, dated 2013).

Test system: C-reactive protein
Test: C-reactive protein in serum of rats fed a 30% fat, approximately 20% simple sugar diet
Type: in vivo
Conditions: salt approximately 76 mg/day; change in CRP over 4 weeks vs control arm
Text: To test the properties of HCA in various forms under conditions similar to those found in human clinical trials, the inventor arranged for rats to be fed a diet in which 30% of the calories were obtained from fat under standard conditions, with a further approximately 20% of the calories being supplied as simple sugars. Such a dietary combination of fat and simple sugars is noted as promoting a variety of metabolic imbalances and dysfunctions. The rats were intubated twice daily with one of five HCA salts or placebo. On weekends, the HCA was added to the food at an approprate dosage. The amount of HCA in each arm of 8 animals was based on the minimum dosage which had been found effective in the form of the pure trisodium salt of HCA in tests by Hoffmann-La Roche in animals ingesting a 70% glucose diet, i.e., 0.33 mmoles/kg body weight HCA given twice per day. […]
Tests were performed for C-reactive protein. […] Optical Density (OD) readings in the test kit used were 1 unit equals 50 picograms/mL. […]

## O=C([O-])CC(O)(C(=O)[O-])C(O)C(=O)[O-].[K+].[K+].[K+] (stereo not shown) [KHCA, potassium hydroxycitrate]
  Delta versus Control: 0.0005
